# Results deposited as PubChem BioAssay AID602196 (INSERM, 2012)
# Screen: 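Genes whose knock-down alters cisplatin killing of lung cancer cells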
# System: human A549 lung cancer cells
# Reagents: siRNA pair against human genes
# Duration: 48 h transfection before cisplatin; time from cisplatin to read-out not stated
# Conditions: cisplatin at a dose killing half of control-siRNA cells; exact dose and duration not given
# Measurement: 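Cisplatin cell death as a shift from the 50% death seen with control siRNA; siRNAs toxic or growth-blocking alone scored 0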
# Scale: two-siRNA summed score (-2 to +2): higher = both siRNAs protect from cisplatin killing; -2 means both sensitise; mean protection from cisplatin (shift in death) and protection from cisplatin (shift in death), siRNA C: higher = protection from cisplatin killing
# Call rule: 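siRNAs harmful alone (LDH or WST-1) get 0; others get +1 for less and -1 for more cisplatin killing; genes are active when the two siRNAs give the same sign, summing to ±2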
# Meaning of the calls: active = both siRNAs shift cisplatin killing the same way; inactive = no consistent shift, or siRNA harmful alone
# The whole screen tested about 23,000 reagents; below is a part drawn at random. Of all reagents, 455 (2%) are marked active. 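Active includes both protection and sensitisation; some change values fall well beyond the stated -50 to +50 range.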 Not all columns of the deposit are shown. Not given: the amount of reagent.
target gene,two-siRNA summed score (-2 to +2),mean protection from cisplatin (shift in death) (%),"protection from cisplatin (shift in death), siRNA C (%)",call
ZMYND12 (zinc finger MYND-type containing 12),0,14.1,17,inactive
LOC441616,1,10.8,7.6,inactive
FCHO2 (FCH and mu domain containing endocytic adaptor 2),1,15.3,17,inactive
MPV17L (MPV17 mitochondrial inner membrane protein like),0,12.2,11,inactive
CNTN2 (contactin 2),-1,4.8,-21.1,inactive
FGL1 (fibrinogen like 1),0,30.2,49.9,inactive
KCNV2,0,0.3,-1,inactive
LOC285018,0,33.7,12.6,inactive
C20orf96 (chromosome 20 open reading frame 96),-1,-3.9,-18.4,inactive
SLC44A4,0,16.6,-1.8,inactive
DDA1 (DET1 and DDB1 associated 1),0,4.5,3.4,inactive
OR5M9 (olfactory receptor family 5 subfamily M member 9),0,16.7,17.7,inactive
NDUFAF5 (NADH:ubiquinone oxidoreductase complex assembly factor 5),0,10,5.7,inactive
DCANP1 (dendritic cell associated nuclear protein 1),0,-2.6,-10.8,inactive
KRTAP13-3 (keratin associated protein 13-3),0,9.4,12.6,inactive
LOC254808,0,-2.2,-6.3,inactive
APBA3 (amyloid beta precursor protein binding family A member 3),0,-4.1,-9.8,inactive
ZNF251 (zinc finger protein 251),0,2,2.6,inactive
LOC402251,0,4.9,6.5,inactive
PCDHB6 (protocadherin beta 6),1,8.1,18.7,inactive
LOC133790,1,27.9,24.7,inactive
CD300E (CD300e molecule),0,-7.1,-10.8,inactive
LOC389422,0,9.8,10.6,inactive
TMED5 (transmembrane p24 trafficking protein 5),0,10.5,9.5,inactive
PSG7 (pregnancy specific beta-1-glycoprotein 7),1,33.3,36.9,inactive
HMOX2 (heme oxygenase 2),1,16.9,17.8,inactive
RCAN2 (regulator of calcineurin 2),0,1.9,-0.7,inactive
RPL15 (ribosomal protein L15),1,11,2.4,inactive
KRTAP17-1 (keratin associated protein 17-1),-1,-14.5,-7,inactive
CTDP1-DT (CTDP1 divergent transcript),0,2.5,-0.4,inactive
LOC441366,0,-0.1,7,inactive
FOXI1 (forkhead box I1),0,6.3,11.3,inactive
PLEKHA3 (pleckstrin homology domain containing A3),0,4,0.2,inactive
CENPL (centromere protein L),1,4.8,0.4,inactive
LOC388713,1,6.9,-9.3,inactive
ZNF721 (zinc finger protein 721),0,3.3,-1,inactive
ZFR2 (zinc finger RNA binding protein 2),0,8.1,17.4,inactive
PCDHB12 (protocadherin beta 12),0,-4.8,-5,inactive
SEC61B (SEC61 translocon subunit beta),0,3.5,1.2,inactive
LOC400645,0,3.6,3.2,inactive
ANKMY1 (ankyrin repeat and MYND domain containing 1),0,3.3,-0.1,inactive
BTG2 (BTG anti-proliferation factor 2),1,19,25.5,inactive
PKP3 (plakophilin 3),1,26.7,34.6,inactive
LOC392314,0,4.1,-4.9,inactive
DDX27 (DEAD-box helicase 27),0,14.7,15.6,inactive
TNFRSF11B (TNF receptor superfamily member 11b),1,13.7,8.5,inactive
LOC390732,-1,-15.7,-8.1,inactive
PPP2R5D (protein phosphatase 2 regulatory subunit B'delta),0,-3.3,0.7,inactive
OR2W3 (olfactory receptor family 2 subfamily W member 3),-1,-3,12.2,inactive
SIRPB2 (signal regulatory protein beta 2),0,5.8,10.1,inactive
TPPP2 (tubulin polymerization promoting protein family member 2),0,6.3,19.9,inactive
CYP27A1 (cytochrome P450 family 27 subfamily A member 1),1,18.1,25.6,inactive
SMG1,-1,-6.3,4.2,inactive
LOC441698 (retired record),1,12.8,6.9,inactive
TEX44 (testis expressed 44),0,24.6,48.5,inactive
SYCP2L (synaptonemal complex protein 2 like),0,2.2,-6.4,inactive
SLC26A3,0,-5.5,-7.3,inactive
